Where a name gives a salt, the structure may show the parent alone. This is one part of the list. Hit calls seldom repeat between salt and free forms of one compound.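 Kinases were expressed as nanoluciferase fusions in K562 cells and luminescence was read every 4 h between 2 and 18 h as percent of control, DMSO set to 100% and a positive control to 0%. A time point counts as decreased when the signal drops significantly (2 sigma). The hit call is the authors' own, does not follow from the count of time points alone, and its rule is not shown.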
Target: ABL1 (UniProt P00519)
Assay: kinase-Nluc reporter destabilization hit call (1 = scored as downregulated) (binary); higher = compound decreases kinase abundance
Settings: K562; 2-18 h

Amino acid sequences for entries named in this document (tags omitted). A change or cut given only in a name is not applied to a line headed by its entry.
UniProt P00519, whole entry: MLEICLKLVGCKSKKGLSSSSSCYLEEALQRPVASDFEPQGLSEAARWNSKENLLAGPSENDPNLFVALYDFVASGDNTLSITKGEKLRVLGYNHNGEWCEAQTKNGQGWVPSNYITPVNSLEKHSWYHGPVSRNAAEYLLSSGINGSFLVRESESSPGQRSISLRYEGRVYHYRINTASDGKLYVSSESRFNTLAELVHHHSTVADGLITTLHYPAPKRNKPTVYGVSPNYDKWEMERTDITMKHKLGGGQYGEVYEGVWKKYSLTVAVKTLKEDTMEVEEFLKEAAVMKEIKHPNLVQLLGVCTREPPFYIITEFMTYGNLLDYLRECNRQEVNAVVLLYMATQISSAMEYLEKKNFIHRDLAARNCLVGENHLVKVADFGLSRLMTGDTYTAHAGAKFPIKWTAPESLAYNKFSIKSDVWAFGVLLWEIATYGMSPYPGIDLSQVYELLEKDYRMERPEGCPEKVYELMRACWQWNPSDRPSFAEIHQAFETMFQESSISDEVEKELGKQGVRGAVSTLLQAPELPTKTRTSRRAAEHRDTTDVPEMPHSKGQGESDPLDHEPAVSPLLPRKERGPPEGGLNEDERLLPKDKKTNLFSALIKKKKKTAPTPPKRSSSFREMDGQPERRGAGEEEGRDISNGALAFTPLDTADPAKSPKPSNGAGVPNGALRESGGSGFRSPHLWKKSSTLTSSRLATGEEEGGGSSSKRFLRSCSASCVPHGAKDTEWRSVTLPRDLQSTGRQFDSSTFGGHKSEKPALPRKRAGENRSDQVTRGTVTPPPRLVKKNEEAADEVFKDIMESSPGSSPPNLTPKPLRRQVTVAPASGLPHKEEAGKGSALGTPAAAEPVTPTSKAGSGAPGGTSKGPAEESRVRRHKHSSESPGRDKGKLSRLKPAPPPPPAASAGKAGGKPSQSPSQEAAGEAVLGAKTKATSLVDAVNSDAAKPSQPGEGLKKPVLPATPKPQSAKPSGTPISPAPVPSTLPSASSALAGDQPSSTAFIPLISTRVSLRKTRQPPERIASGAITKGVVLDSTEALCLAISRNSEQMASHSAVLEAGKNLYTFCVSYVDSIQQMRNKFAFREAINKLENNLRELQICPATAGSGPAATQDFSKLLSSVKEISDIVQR
UniProt P31749: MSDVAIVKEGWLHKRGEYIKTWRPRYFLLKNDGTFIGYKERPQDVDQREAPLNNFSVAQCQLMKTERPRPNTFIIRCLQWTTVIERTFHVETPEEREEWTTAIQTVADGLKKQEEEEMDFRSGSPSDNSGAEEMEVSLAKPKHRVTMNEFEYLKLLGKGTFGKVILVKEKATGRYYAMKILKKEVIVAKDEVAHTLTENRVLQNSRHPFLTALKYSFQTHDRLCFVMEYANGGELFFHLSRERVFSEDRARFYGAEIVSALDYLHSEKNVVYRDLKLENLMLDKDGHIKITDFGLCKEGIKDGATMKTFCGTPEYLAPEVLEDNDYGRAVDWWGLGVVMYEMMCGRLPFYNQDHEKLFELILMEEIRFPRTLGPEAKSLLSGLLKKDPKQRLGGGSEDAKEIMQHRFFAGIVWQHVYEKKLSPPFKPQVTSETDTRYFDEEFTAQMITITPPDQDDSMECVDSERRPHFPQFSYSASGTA

kinase-Nluc reporter destabilization hit call, inactive:
Cn1c(=O)c2c(nc(S(C)(=O)=O)n2C)n(CC#Cc2cccc(O)c2)c1=O (2.5 µM) 0
Cc1ccc(C)c(OCCn2cc(C(=O)O)c3ccccc32)c1 (10 µM) 0
C=CC(=O)Nc1ccc(C(=O)Nc2[nH]nc3c2CN(C(=O)N[C@H](CN(C)C)c2ccccc2)C3(C)C)cc1 (10 µM) 0
Nc1ncnc2c1nc(Br)n2[C@@H]1O[C@@H]2COP(=O)(O)O[C@H]2[C@H]1O [8-Bromo-cAMP sodium salt] (10 µM) 0
O=c1[nH]ccc2nc(-c3ccc(CN4CCC(c5nc(-c6ccccn6)n[nH]5)CC4)cc3)c(-c3ccccc3)cc12 (10 µM) 0
COc1ccc(Nc2ncc(C(F)(F)F)c(NC3CC3)n2)cc1OC (10 µM) 0
O=C1NC(=O)/C(=C\c2c[nH]c(=O)c(-c3ccc(N4CCNCC4)nc3)c2)S1 [Protein kinase inhibitors 1 hydrochloride] (10 µM) 0
CCN(CC)CCCC(C)Nc1nc(C)cc(Nc2ccc3nc(C)cc(N)c3c2)n1 (stereo unspecified) (10 µM) 0

Target: AKT1 (UniProt P31749)
Assay: as above
Settings: K562; 2-18 h

kinase-Nluc reporter destabilization hit call, inactive:
CC(C)CCN1c2nc(Nc3cc(F)c(O)c(F)c3)ncc2N(C)C(=O)C1C (stereo unspecified) (2.5 µM) 0
CC(C)=CC[C@@H](O)C1=CC(=O)c2c(O)ccc(O)c2C1=O [Shikonin] (10 µM) 0
CCC(=O)Nc1cccc(Oc2nc(Nc3ccc(N4CCN(C)CC4)cc3OC)ncc2Cl)c1 (10 µM) 0
CC(C)=CCC/C(C)=C/CC/C(C)=C/C=C/C(C)=C/C(=O)O [Peretinoin] (10 µM) 0
COc1ccc2c(Oc3ccc4c(C(=O)Nc5ccccc5N)cccc4c3)ccnc2c1 [Chiauranib] (10 µM) 0
Cc1nn(C)cc1-c1nc2c(N3CCN(Cc4ccc(Cl)cc4)CC3)c(Cl)cnc2[nH]1 (10 µM) 0
CNC(=O)c1cc2c(Oc3ccc(NC(=O)C4(C(=O)Nc5ccc(F)cc5)CC4)cc3)ccnc2cc1OC (2.5 µM) 0
O=C(Nc1cccnc1)c1cc(-c2ccnc(F)c2)ccc1OCc1ccccc1 (10 µM) 0
CN(C)c1ccc(-c2nc3ncc(Cl)c(N4CCN(CC(=O)Nc5nccs5)CC4)c3[nH]2)cc1 (2 µM) 0
Cc1cc(C(=O)NC(C)(C)C)cc(C#Cc2ccc3c4c(oc3c2)C(C)(C)c2cc(NS(C)(=O)=O)ccc2C4=O)n1 (10 µM) 0
O=C(O)c1cc(N(Cc2ccccc2O)Cc2cc(O)ccc2O)ccc1O [Lavendustin A] (10 µM) 0
C[C@@H](Nc1ncnc2[nH]c(-c3ccc(O)cc3)cc12)c1ccccc1 (2.5 µM) 0
O=C(O)c1ccc(/C=C/S(=O)(=O)Cc2ccc(Cl)cc2)cc1 [Recilisib] (10 µM) 0
Nc1nc(NCCNc2ncc(-n3ccnc3)c(-c3ccc(Cl)cc3Cl)n2)ccc1[N+](=O)[O-] (2.5 µM) 0
Cc1cnc(NC(=O)c2cc(Oc3cnc(C(=O)N(C)C)nc3)c3cc(C)oc3c2)cn1 (10 µM) 0
CNC(=O)CNc1cnc2ccc(-c3ccc(OC)c(OC)c3)cc2n1 (10 µM) 0
N[C@@H]1CCCN(c2c(/C=C3\SC(=O)NC3=O)cccc2-c2ccccc2)C1 (10 µM) 0
CO[C@H]1C[C@@H]2CC[C@@H](C)[C@@](O)(O2)C(=O)C(=O)N2CCCC[C@H]2C(=O)O[C@H]([C@H](C)C[C@@H]2CC[C@@H](OC(=O)C(C)(CO)CO)[C@H](OC)C2)CC(=O)[C@H](C)/C=C(\C)[C@@H](O)[C@@H](OC)C(=O)[C@H](C)C[C@H](C)/C=C/C=C/C=C/1C [Temsirolimus] (2.5 µM) 0
COc1cc2nccc(Oc3ccc(NC(=O)c4cn(C(C)C)c(=O)n(-c5ccc(F)cc5)c4=O)cc3F)c2cc1OC (0.5 µM) 0
C=C1CCC[C@]2(C)C=C3OC(=O)C(C)=C3C[C@@H]12 [Atractylenolide I] (10 µM) 0
C=CC(=O)Nc1cc(Nc2nccc(-c3cn(C)c4ccccc34)n2)c(OC)cc1OCCN(C)C [Rezivertinib] (2.5 µM) 0
C=C1C(=O)[C@@]23[C@H](O)C[C@@H]4C(C)(C)C(=O)CC[C@@]4(C)[C@@H]2CC[C@@H]1[C@H]3O [Glaucocalyxin A] (2.5 µM) 0
NC1(C(=O)NCCCn2cc(-c3ccc(OC(F)(F)F)cc3)c3cc(CN4CCN(Cc5c(Cl)cccc5Cl)CC4)ccc32)CCNCC1 (2.5 µM) 0
CC(Sc1nc2c(cnn2-c2cccc(Cl)c2)c(=O)[nH]1)C(N)=O (stereo unspecified) (10 µM) 0
Fc1ccc2[nH]ccc2c1-c1nc(N2CCOCC2)c2sc(CN3CCN(CC4CC4)CC3)cc2n1 (10 µM) 0
Cn1cc(-c2cc(Oc3cc(F)c(NC(=O)C4(C(=O)Nc5ccccc5)CC4)cc3F)ccn2)cn1 (2.5 µM) 0
COc1ccc(S(=O)(=O)Nc2cc(-c3c(O)ccc4ccccc34)c(O)c3ccccc23)cc1 (10 µM) 0
Cn1c2cc([S+](C)[O-])sc2c2cnn(Cc3cccc(N)c3)c(=O)c21 (stereo unspecified) (2.5 µM) 0
O=C(NCCO)c1cc(C(=O)NCCO)cc(C(=O)NCCO)c1 (10 µM) 0
N#Cc1cnc2c(Cl)cc(NCc3cn(CCN4CCCCCC4)nn3)cc2c1Nc1ccc(F)c(Cl)c1 [Cot inhibitor-1] (10 µM) 0
Cn1c(=O)c2c(nc(S(C)(=O)=O)n2C)n(CC#Cc2cccc(O)c2)c1=O (2.5 µM) 0
Cc1ccc(C)c(OCCn2cc(C(=O)O)c3ccccc32)c1 (10 µM) 0
C=CC(=O)Nc1ccc(C(=O)Nc2[nH]nc3c2CN(C(=O)N[C@H](CN(C)C)c2ccccc2)C3(C)C)cc1 (10 µM) 0
Nc1ncnc2c1nc(Br)n2[C@@H]1O[C@@H]2COP(=O)(O)O[C@H]2[C@H]1O [8-Bromo-cAMP sodium salt] (10 µM) 0
O=c1[nH]ccc2nc(-c3ccc(CN4CCC(c5nc(-c6ccccn6)n[nH]5)CC4)cc3)c(-c3ccccc3)cc12 (10 µM) 0
COc1ccc(Nc2ncc(C(F)(F)F)c(NC3CC3)n2)cc1OC (10 µM) 0
O=C1NC(=O)/C(=C\c2c[nH]c(=O)c(-c3ccc(N4CCNCC4)nc3)c2)S1 [Protein kinase inhibitors 1 hydrochloride] (10 µM) 0
CCN(CC)CCCC(C)Nc1nc(C)cc(Nc2ccc3nc(C)cc(N)c3c2)n1 (stereo unspecified) (10 µM) 0

Reference: the supplement of paper PMC12823440, “Inhibitors supercharge kinase turnover through native proteolytic circuits” (Nature, 2025)
